Assay results: PubChem BioAssay AID2685 (National Center for Advancing Translational Sciences (NCATS), 2010)
The list shows a part of the results. Further columns of the screen follow, without active or inactive calls. Compounds called inactive in the main read-out are mostly missing here. Potencies come from curve fits of mixed quality, noted in brackets.

Experiment: qHTS Assay for Lipid Storage Modulators in Drosophila S3 Cells;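 for cell number change: cells counted by Cell Tracker Red CMTPX staining in the red channel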
Settings: BODIPY lipid droplet fluorescence, 18-24 h; for cell number change: measured here: cell count max response, cells fed with added oleic acid
In short: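 Laser-scanning cytometry quantifies lipid droplet accumulation (500–530 nm total intensity; droplet/cell object ratio) in oleic acid-fed (400 uM added) Drosophila S3 cells treated with a concentration series. 20 uM Triacsin C defined 100% inhibition.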

[1] = measured here: lipid fluorescence (Fed channel) AC50, cells fed with added oleic acid
[2] = measured here: cell number channel AC50, cells fed with added oleic acid

Structure (SMILES) | cell number change [%] | AC50 [1] | AC50 [2]
Cc1cccc(NC(=O)C2CCCN(C(=O)Nc3ccc(F)cc3)C2)c1C (stereo not given) | 2.56 | 6.51 µM [rising, partial curve] | –
Cc1ccccc1NC(=O)c1sc2nc3c(c(-c4ccco4)c2c1N)CCCC3 | 17.4 | 3.26 µM [rising, partial curve] | 1.03 µM [rising, partial curve, poor fit]
CCCN(C(=O)CCOc1ccc(C(C)(C)C)cc1)c1c(N)n(Cc2ccccc2)c(=O)[nH]c1=O | -45.2 | 10.3 µM [falling, partial curve] | 20.6 µM [falling, single point]
Cc1ccc(OCc2nc(C#N)c(N3CCN(Cc4ccccc4)CC3)o2)cc1 | – | 0.651 µM [rising, partial curve, poor fit] | –
COc1ccc(CN(C)C(=O)Cn2ccc(N)nc2=O)cc1OC | -0.323 | 0.366 µM [falling, partial curve] | 0.366 µM [falling, partial curve]
CC(C)CCC(=O)N1CCC(N2CCC(C(=O)NCc3ccccn3)CC2)CC1 | -10.1 | – | –
COc1ccc(-c2cc(C(=O)NCC3CCCO3)on2)cc1OC (stereo not given) | 44 | 2.06 µM [rising, partial curve, poor fit] | 32.6 µM [rising, single point]
O=C(NCC(c1cccnc1)N1CCOCC1)Nc1ccccc1 (stereo not given) | 14.9 | 29.1 µM [rising, single point] | –
COC(=O)/C=C1\NCCSC1=O | -31.1 | 25.9 µM [falling, single point] | 32.6 µM [falling, single point]
COc1ccc(C)cc1Nc1n[n+](-c2ccccc2)c(-c2cc(OC)c(OC)cc2Br)s1 | -14.1 | 29.1 µM [falling, single point] | –
NC(=O)Cn1nnc(-c2ccc(CN3CCCCC3)cc2)n1 | -8.35 | 0.517 µM [falling, full curve] | –
Cc1cccc(NC(=O)c2cn(-c3ccccc3)nc2-c2ccccc2)c1 | 8.75 | – | 0.326 µM [falling, full curve, poor fit]
O=C1Nc2c(c(=O)[nH]c(=O)n2-c2ccccc2)C1(Nc1ncccn1)C(F)(F)F (stereo not given) | -109 | 0.13 µM [falling, full curve, poor fit] | 29.1 µM [falling, partial curve, poor fit]
O=S(=O)(NC1c2cccc3cccc(c23)C1N1CCNCC1)c1ccccc1 (stereo not given) | 23.4 | 32.6 µM [rising, single point] | –
CCN(CC)S(=O)(=O)c1ccc(C(=O)C(C#N)c2ccccn2)cc1 (stereo not given) | -23.1 | – | –
O=C(COC(=O)c1cc([N+](=O)[O-])ccc1N1CCOCC1)c1ccc(OC(F)F)cc1OC(F)F | 118 | – | 14.6 µM [rising, partial curve]
CCN(CC(=O)Nc1ccc(NC(C)=O)cc1)C(=O)c1ccc(NC2CC2)c([N+](=O)[O-])c1 | -21.2 | 1.84 µM [rising, partial curve] | –

Structure (SMILES) | cell number change [%] | AC50 [1] | AC50 [2]
CC(=O)c1cccc(NC(=O)c2ccc(OCc3c(C)noc3C)cc2)c1 | 2.59 | – | –
O=C(CCCN1C(=O)/C(=C/c2cccs2)SC1=S)NNC(=O)c1ccccc1O | – | 5.8 µM [falling, full curve] | –
O=C(COc1cc(F)ccc1[N+](=O)[O-])Nc1ccc(N2CCOCC2)cc1 | -9.37 | 0.082 µM [falling, full curve, poor fit] | 0.082 µM [falling, full curve, poor fit]
COc1ccccc1C(=O)NNC(=O)c1nn(Cc2ccccc2)c(=O)c2ccccc12 | 2.57 | – | –
CCCC(C(=O)Nc1cc(S(=O)(=O)N2CCOCC2)ccc1OC)c1ccccc1 (stereo not given) | 6.04 | 0.461 µM [rising, full curve, poor fit] | –
COc1ccc(NC(=O)CN(C)CC(=O)Nc2sc3c(c2C(N)=O)CCC3)cc1 | 63.9 | – | 9.2 µM [rising, partial curve]
CSc1nc2nc(C(F)(F)F)cc(-c3ccccc3)n2n1 | – | 6.51 µM [rising, single point] | 6.51 µM [rising, single point]
O=c1ccn(-c2cccc(C(F)(F)F)c2)nc1-c1ccn(-c2cccc(Cl)c2)n1 | -23.7 | 23.1 µM [falling, single point] | –
COC(=O)c1ccc(CNC(=O)c2coc3ccccc3c2=O)cc1 | – | 6.51 µM [rising, single point] | –
O=C(OCC1OC(Oc2ccc(O)cc2)C(O)C(O)C1O)c1ccccc1 (stereo not given) | -38.3 | 29.1 µM [falling, single point] | 1.03 µM [falling, full curve]
Cc1cc(NC(=O)C(=O)NCCN2CCN(S(C)(=O)=O)CC2)ccc1Br | -30.3 | 6.51 µM [rising, single point] | –
COCCCNC(=O)c1ccc2c(c1)CCN2S(C)(=O)=O | 1.85 | 25.9 µM [falling, single point] | –
O=C(Nc1ccc(F)cc1)c1cccc(N2C(=O)C3C4C=CC(C5CC45)C3C2=O)c1 (stereo not given) | -36.2 | 13 µM [falling, partial curve, poor fit] | 7.31 µM [falling, partial curve, poor fit]
COc1ccc(NC(=O)CSc2n[nH]c(-c3ccccc3)n2)cc1S(N)(=O)=O | 11.3 | 6.51 µM [falling, single point] | –
Cn1c(Cn2nnc3ccccc32)nnc1SCC(=O)c1ccc(F)cc1 | 34.3 | – | 9.2 µM [rising, partial curve]
COCCN(C(=O)CSc1nc2ccccc2c(=O)n1C(C)COC)c1c(N)n(Cc2ccccc2)c(=O)[nH]c1=O (stereo not given) | -32.5 | 0.058 µM [falling, full curve, poor fit] | 0.058 µM [falling, full curve, poor fit]
COC(=O)CCN(C(=O)c1ccc(N2CCCCC2)c([N+](=O)[O-])c1)c1ccccn1 | -22.6 | – | –

Reprinted from the entries so far (2 entries):
Structure (SMILES) | cell number change [%] | AC50 [1] | AC50 [2]
COc1ccc(NC(=O)CSc2n[nH]c(-c3ccccc3)n2)cc1S(N)(=O)=O | 11.3 | 6.51 µM [falling, single point] | –
Cn1c(Cn2nnc3ccccc32)nnc1SCC(=O)c1ccc(F)cc1 | 34.3 | – | 9.2 µM [rising, partial curve]
